In US20250283871A1, “COMPOSITIONS AND METHODS FOR MODULATING THE INTERACTION BETWEEN SS18-SSX FUSION ONCOPROTEIN AND NUCLEOSOMES” (Dana-Farber Cancer Institute, Inc., priority 2020, published 2025):

System: BAF complex subunits and histone proteins
Assay: Mass spectrometry proteomics of purified HA-SS18 WT and HA-SS18-SSX1 complexes (Tables 5A-5E)
Set-up: species or system human
Details: HA-SS18WT_CHR_peptides: protein identified in HA-SS18 WT BAF complex purification from nuclease-treated solubilized chromatin (CHR), HEK-293T

Molecule	Total (total peptides)	Unique (unique peptides)
GGCT (protein, UniProt O75223 1-188, looked up) Gamma-glutamylcyclotransferase: MANSGCKDVTGPDEESFLYFAYGSNLLTERIHLRNPSAAFFCVARLQDFKLDFGNSQGKTSQTWHGGIATIFQSPGDEVWGVVWKMNKSNLNSLDEQEGVKSGMYVVIEVKVATQEGKEITCRSYLMTNYESAPPSPQYKKIICMGAKENGLPLEYQEKLKAIEPNDYTGKVSEEIEDIIKKGETQTL	1	1
KIF23 (protein, UniProt Q02241 1-960, looked up) Kinesin-like protein KIF23: MKSARAKTPRKPTVKKGSQTNLKDPVGVYCRVRPLGFPDQECCIEVINNTTVQLHTPEGYRLNRNGDYKETQYSFKQVFGTHTTQKELFDVVANPLVNDLIHGKNGLLFTYGVTGSGKTHTMTGSPGEGGLLPRCLDMIFNSIGSFQAKRYVFKSNDRNSMDIQCEVDALLERQKREAMPNPKTSSSKRQVDPEFADMITVQEFCKAEEVDEDSVYGVFVSYIEIYNNYIYDLLEEVPFDPIKPKPPQSKLLREDKNHNMYVAGCTEVEVKSTEEAFEVFWRGQKKRRIANTHLNRESSRSHSVFNIKLVQAPLDADGDNVLQEKEQITISQLSLVDLAGSERTNRTRAEGNRLREAGNINQSLMTLRTCMDVLRENQMYGTNKMVPYRDSKLTHLFKNYFDGEGKVRMIVCVNPKAEDYEENLQVMRFAEVTQEVEVARPVDKAICGLTPGRRYRNQPRGPVGNEPLVTDVVLQSFPPLPSCEILDINDEQTLPRLIEALEKRHNLRQMMIDEFNKQSNAFKALLQEFDNAVLSKENHMQGKLNEKEKMISGQKLEIERLEKKNKTLEYKIEILEKTTTIYEEDKRNLQQELETQNQKLQRQFSDKRRLEARLQGMVTETTMKWEKECERRVAAKQLEMQNKLWVKDEKLKQLKAIVTEPKTEKPERPSRERDREKVTQRSVSPSPVPLSSNYIAQISNGQQLMSQPQLHRRSNSCSSISVASCISEWEQKIPTYNTPLKVTSIARRRQQEPGQSKTCIVSDRRRGMYWTEGREVVPTFRNEIEIEEDHCGRLLFQPDQNAPPIRLRHRRSRSAGDRWVDHKPASNMQTETVMQPHVPHAITVSVANEKALAKCEKYMLTHQELASDGEIETKLIKGDIYKTRGGGQSVQFTDIETLKQESPNGSRKRRSSTVAPAQPDGAESEWTDVETRCSVAVEMRAGSQLGPGYQHHAQPKRKKP	1	1
ABT1 (protein, UniProt Q9ULW3 1-272, looked up) Activator of basal …: MEAEESEKAATEQEPLEGTEQTLDAEEEQEESEEAACGSKKRVVPGIVYLGHIPPRFRPLHVRNLLSAYGEVGRVFFQAEDRFVRRKKKAAAAAGGKKRSYTKDYTEGWVEFRDKRIAKRVAASLHNTPMGARRRSPFRYDLWNLKYLHRFTWSHLSEHLAFERQVRRQRLRAEVAQAKRETDFYLQSVERGQRFLAADGDPARPDGSWTFAQRPTEQELRARKAARPGGRERARLATAQDKARSNKGLLARIFGAPPPSESMEGPSLVRDS	1	1
